From PubChem BioAssay AID2685 (National Center for Advancing Translational Sciences (NCATS), 2010)
This is one part of the list. These are further read-outs of the screen, such as a control signal, another cell line or another target. No call is given for them. Compounds called inactive in the main read-out are mostly missing here. Words in brackets tell the shape of the fitted curve; partial curves, single points and poor fits give uncertain potencies.

Assay: qHTS Assay for Lipid Storage Modulators in Drosophila S3 Cells;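 on cell number change: cells counted by Cell Tracker Red CMTPX staining in the red channel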
Details: BODIPY lipid droplet fluorescence, 18-24 h; for cell number change: measured here: cell count max response, cells fed with added oleic acid
Procedure, shortened: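 Drosophila S3 cells loaded with oleic acid (400 uM, as added) and compounds at several concentrations; lipid droplets imaged by 488-nm laser-scanning cytometry, 500–530 nm intensity and object ratio to cell channel. Percent activity normalized to 20 uM Triacsin C.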

[1] = measured here: cell number channel AC50, cells fed with added oleic acid
[2] = measured here: lipid fluorescence (Fed channel) AC50, cells fed with added oleic acid

Row | SMILES | cell number change [%] | AC50 [1] | AC50 [2]
1 | COc1ccc(/C=N/NC(=S)SC)cc1OC | 20.1 | 0.291 µM [rising, full curve, poor fit] | –
2 | CC1=C/C(=N\NC(=O)c2ccccc2)CC1 | -33.3 | 29.1 µM [falling, single point] | –
3 | Cc1cc(C(=O)CSc2nnnn2C)c(C)n1CCc1ccc(Cl)cc1 | -11.5 | – | 29.1 µM [rising, single point]
4 | C=CCNCCCCOc1ccc(Br)cc1C | 2.47 | – | 0.651 µM [falling, single point]
5 | CC1CCCC(NC(=O)CSc2nnc(N)s2)C1C (configuration not stated) | -15.9 | – | 2.31 µM [falling, partial curve, poor fit]
6 | CCN(C(=O)CSc1nncs1)c1c(N)n(Cc2ccccc2)c(=O)[nH]c1=O | 23.1 | – | 0.082 µM [rising, full curve, poor fit]
7 | N/C(COc1ccc(C(=O)O)cc1)=N\O | 1.16 | – | 4.11 µM [falling, single point]
8 | COc1ccccc1CNC(=O)c1ccncc1 | 13.9 | – | 29.1 µM [falling, single point]
9 | COc1ccc(N=C2CCCN2CC(N)=O)cc1 | -12.1 | – | 3.26 µM [falling, single point]
10 | CCOc1ccc(OCC)c(NC(=O)CN2CCN(c3cccc(C)c3)C(C)C2)c1 (configuration not stated) | -27 | – | 29.1 µM [falling, single point]
11 | CCN(CC)CCN1C(=O)/C(=C\c2ccc(Cl)c([N+](=O)[O-])c2)SC1=Nc1ccc(OC)cc1 | 25.7 | – | –
12 | CCn1c(=O)oc2cc(NC(=O)CCl)ccc21 | -6.69 | – | –
13 | CCC(C)CCN1C(N(C)C)=NC[C@@H]1Cc1ccccc1 (some centres not stated) | 25.6 | – | 1.84 µM [rising, partial curve]
14 | O=C(COC(=O)Cc1ccccc1F)Nc1ccc(Cl)cn1 | 12.7 | – | –
15 | O=C(NC(CC(=O)N1CCCC(C(F)(F)F)C1)c1ccccc1)c1ccccc1Cl (configuration not stated) | 1.08 | – | –
16 | CC(C)C(=O)Nc1ccc(NC(=O)c2ccc3c(c2)OCO3)cc1 | 163 | 29.1 µM [rising, single point] | –
17 | C=CCN1C(=O)N/C(=C/c2ccc(N3CCOCC3)o2)C1=O | -59.4 | 29.1 µM [falling, single point] | 20.6 µM [falling, partial curve]
18 | Cc1cc(C)nc(SCc2ccc(C(=O)N/N=C3\CCCC(=O)C3)cc2)n1 | – | – | 29.1 µM [rising, single point]
19 | Cc1cccc(SCC(=O)Nc2ccc3c(c2)OCCO3)c1 | 8.33 | – | 1.12 µM [rising, full curve, poor fit]
20 | CC1CCCC(NC(=O)C2CCCN2S(=O)(=O)c2cccc3nsnc23)C1C (configuration not stated) | 27.1 | – | 16.4 µM [rising, single point]
21 | O=C(Cc1c(Cl)cccc1Cl)OCC(=O)N1CCN(C(=O)c2ccco2)CC1 | – | 0.146 µM [falling, single point] | 0.13 µM [falling, single point]

Row | SMILES | cell number change [%] | AC50 [1] | AC50 [2]
22 | CCS(=O)(=O)N1CCN(C(=O)c2ccco2)CC1 | -20.9 | – | 4.11 µM [falling, full curve]
23 | CCN(CC)C(=O)c1sc(NC(=O)c2ccc(C)c([N+](=O)[O-])c2)c(C#N)c1C | 92.9 | – | 18.4 µM [rising, single point]
24 | COc1ccc(CCNC(=O)CSCc2n[nH]c(=O)[nH]2)cc1OC | -29.1 | – | 29.1 µM [falling, single point]
25 | CC1(C)NC(=O)N(CCCCOc2ccc(Br)cc2Cl)C1=O | -3.44 | – | 0.116 µM [rising, full curve]
26 | COc1ccc(OC)c(C(=O)CSc2nnc(Cc3cccs3)n2CCc2ccccc2)c1 | -35 | 9.2 µM [falling, single point] | –
27 | C=CCn1c(O)c(CN2CCCCC2)c(C)c(C#N)c1=O | -98.2 | 23.1 µM [falling, partial curve] | 6.51 µM [falling, partial curve, poor fit]
28 | N#Cc1cc([N+](=O)[O-])cnc1N(CCO)CCO | 47.2 | 6.51 µM [rising, single point] | –
29 | CCc1nnc(NC(=O)CSc2nnc(-c3cc4ccccc4cc3O)n2CCOC)s1 | -9.54 | – | –
30 | COCCN(CCOC)C(=O)c1cc2c(=O)n3ccccc3nc2s1 | -0.886 | – | 2.91 µM [rising, partial curve]
31 | O=C1CN(C(=O)CSc2nncn2-c2ccccc2)c2ccccc2N1 | -5.58 | – | –
32 | Cc1cc2c3c(c1)C1(C(=O)N3C(C)(C)CC2C)C(C#N)=C(N)Oc2cc(O)ccc21 (configuration not stated) | 20.5 | – | –
33 | CCOC(=O)CSc1ccc(S(=O)(=O)N(C)C2CCCCC2)cc1[N+](=O)[O-] | – | – | 0.82 µM [falling, full curve, poor fit]
34 | CC(C)C(=O)Nc1cccnc1 | 2.89 | – | –
35 | Cc1ccc(N2C(=O)C3C4CCC(O4)C3C2=O)c(OC(F)F)c1 (configuration not stated) | 18.3 | – | 0.731 µM [falling, single point]
36 | CCn1nnnc1Oc1ccc(Cl)cc1 | -78.4 | 20.6 µM [falling, single point] | –
37 | O=[N+]([O-])c1cc([N+](=O)[O-])c(Oc2cc(F)cc(F)c2)cc1NN1CCCCC1 | -16.5 | – | 25.9 µM [falling, partial curve, poor fit]
38 | COc1ccc(CCNc2ccc(C(CC(N)=O)NC(=O)Cc3cccc4ccccc34)cc2[N+](=O)[O-])cc1 (configuration not stated) | 20.6 | – | 8.2 µM [rising, partial curve, poor fit]
39 | COc1ccc(OCCCC(=O)Nc2cc([N+](=O)[O-])ccc2C)cc1 | – | – | 0.82 µM [falling, single point]
40 | COc1cc(/C=N/O)cc(Br)c1OCC(=O)NCc1ccccc1 | 31.5 | 32.6 µM [rising, single point] | 29.1 µM [rising, single point]
41 | O=C(c1ccc([N+](=O)[O-])cc1)N(C1=NCCCCS1)c1ccccc1 | 54.6 | 18.4 µM [rising, partial curve] | –
42 | CSc1ccccc1NC(=O)CN(C)C(=O)C1CC(=O)N(C(C)c2ccccc2)C1 (configuration not stated) | -38.2 | 29.1 µM [falling, single point] | –

Some of the entries so far, as labelled records.
CC(C)C(=O)Nc1cccnc1
  cell number change [%]: 2.89
Cc1ccc(N2C(=O)C3C4CCC(O4)C3C2=O)c(OC(F)F)c1 (configuration not stated)
  cell number change [%]: 18.3
  AC50 [2]: 0.731 µM [falling, single point]

Next structures.

Row | SMILES | cell number change [%] | AC50 [1] | AC50 [2]
43 | O=C(CCc1nc2ccccc2c(=O)[nH]1)Nc1ccc(Cl)c(Cl)c1 | 31.9 | 20.6 µM [rising, partial curve] | –
44 | O=C1NC2(CCCCC2)C(=O)N1CCS(=O)(=O)Oc1ccc(Br)cc1 | -14 | 6.51 µM [falling, single point] | 6.51 µM [falling, partial curve, poor fit]
45 | C=CCSc1nsc(NC(=O)Nc2cccc(C(C)=O)c2)n1 | -23.1 | – | –
46 | O=C(Nc1ccc(NC(=O)C2CC2)cc1)c1ccco1 | -11.1 | – | –
47 | CC1CC(C)CN(C(=O)c2cc3cc(Br)cc(Br)c3o2)C1 (configuration not stated) | 41.3 | 1.64 µM [rising, full curve] | –
48 | Cc1ccccc1S(=O)(=O)Nc1nc2ccccc2nc1NCCO | – | 7.31 µM [falling, single point] | 4.61 µM [falling, single point]
49 | Cn1nc(C(=O)NC2CCC(O)CC2)c2ccccc2c1=O (configuration not stated) | 17.9 | – | 4.11 µM [rising, partial curve, poor fit]
50 | CC(CCc1ccccc1)N(C)CC(O)c1cccc([N+](=O)[O-])c1 (configuration not stated) | 13 | – | –
51 | Cn1c(=O)c2c(SCC(=O)N3CCCC3)nc(-c3ccccc3)nc2n(C)c1=O | -36.2 | 23.1 µM [falling, single point] | 9.2 µM [falling, partial curve]
52 | COc1ccc(NC(=O)CCOc2ccccc2)cc1 | 17.2 | 0.116 µM [rising, full curve] | –
53 | Cc1cc(C)cc(C(=O)NC(CC(N)=O)c2ccc(NC3CCCC3)c([N+](=O)[O-])c2)c1 (configuration not stated) | – | 3.26 µM [rising, partial curve] | 5.17 µM [rising, full curve]
54 | COc1cc(CCc2ccc3c(c2)OCO3)oc(=O)c1 | -72.3 | 29.1 µM [falling, single point] | –
55 | COc1cc(OC)cc(C(=O)NNC(=O)c2ccc(S(=O)(=O)N3CC(C)OC(C)C3)cc2)c1 (configuration not stated) | -19.5 | 0.0326 µM [falling, full curve, poor fit] | 0.00461 µM [falling, full curve, poor fit]
56 | CCOC(=O)C1CCN(S(=O)(=O)c2c(C)n(C)c(=O)n(C)c2=O)CC1 | -86.9 | 6.51 µM [falling, full curve] | 6.51 µM [falling, full curve]
57 | CCc1cc(=O)oc2cc(OCC(=O)N3CCC(C(=O)O)CC3)ccc12 | 13.8 | – | –
58 | O=C(Nc1cnn(Cc2ccc(Cl)c(Cl)c2)c1)C12CC3CC(CC(C3)C1)C2 | -36.5 | 29.1 µM [falling, single point] | 18.4 µM [falling, single point]
59 | Cc1cccc[n+]1CC(=O)/C=C1\N(C)c2ccccc2C1(C)C | -53.2 | 29.1 µM [falling, single point] | 23.1 µM [falling, single point]
60 | CN1CCN(S(=O)(=O)c2ccc(N(C)Cc3cccs3)nc2)CC1 | -24.7 | – | 4.11 µM [rising, full curve]
61 | O=C(O)c1cccc(S(=O)(=O)Nc2ccc(OCc3ccccc3)cc2)c1 | 40.1 | 3.66 µM [rising, full curve] | –
62 | Cn1c(CNC(=O)c2ccco2)nnc1SCC(=O)N1CCN(c2ccccc2)CC1 | 16.7 | – | –

Among those listed so far, these contain a COOH group:
Row | SMILES | cell number change [%] | AC50 [1] | AC50 [2]
7 | N/C(COc1ccc(C(=O)O)cc1)=N\O | 1.16 | – | 4.11 µM [falling, single point]
57 | CCc1cc(=O)oc2cc(OCC(=O)N3CCC(C(=O)O)CC3)ccc12 | 13.8 | – | –
61 | O=C(O)c1cccc(S(=O)(=O)Nc2ccc(OCc3ccccc3)cc2)c1 | 40.1 | 3.66 µM [rising, full curve] | –
